Test results reported in the supplement of paper PMC6078165.
The reference is the same well before dosing, and untreated signal decays as well.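 Fibroblast labels denote human fibroblasts, mainly primary ones from uterus (C12385, HUF), lung (H6013), bone (Hs27A), adrenal (HADF) and skin (WS1), plus mammary HMF and breast cancer-associated Hs343T. Cancer cells are basal-like or mesenchymal-like triple-negative breast cancer lines. A hit is a response shift exceeding 3x replicate standard deviation. The tissue of the other fibroblasts is not given here.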

Tested on: MDAMB231
Experiment: relative JC-1 red fluorescence (viability) vs pre-drug, coculture with fibroblast (fraction); higher = more viable cancer cells
Description: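 JC-1 labelled TNBC cells cocultured 1:1 (1,500 cells each) with CellTrace Violet stained primary or stromal fibroblasts in 384-well plates in FluoroBrite medium, treated with one of 42 anticancer drugs at 0.1, 1, 10 or 100 uM. JC-1 red fluorescence (mitochondrial integrity in cancer cells only) was read by plate reader every 8 h for 72 h. Values are normalised to each well's pre-drug value. The stock of one drug was tenfold lower, so its dose labels may be too high.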

O=C(O)CCCc1ccc(N(CCCl)CCCl)cc1 [Chlorambucil]
relative JC-1 red fluorescence
Details | 8 h | 16 h | 24 h | 32 h | 40 h | 48 h | 56 h | 64 h | 72 h
10 µM, coculture fibroblast: C12385 | 0.742 | 0.716 | 0.616 | 0.59 | 0.53 | 0.494 | 0.447 | 0.436 | 0.41
10 µM, coculture fibroblast: H6013 | 0.8888 | 0.832 | 0.786 | 0.75 | 0.702 | 0.676 | 0.672 | 0.646 | 0.602
10 µM, coculture fibroblast: H6019 | 0.796 | 0.727 | 0.687 | 0.639 | 0.581 | 0.561 | 0.519 | 0.506 | 0.476
10 µM, coculture fibroblast: H6076 | 0.853 | 0.761 | 0.701 | 0.6688 | 0.627 | 0.591 | 0.57 | 0.559 | 0.55
10 µM, coculture fibroblast: H6231 | 0.926 | 0.84 | 0.772 | 0.723 | 0.671 | 0.63 | 0.587 | 0.561 | 0.537
10 µM, coculture fibroblast: HADF | 0.8719 | 0.846 | 0.814 | 0.787 | 0.738 | 0.699 | 0.677 | 0.653 | 0.612
10 µM, coculture fibroblast: HCFa | 0.9179 | 0.854 | 0.814 | 0.779 | 0.727 | 0.679 | 0.655 | 0.624 | 0.579
10 µM, coculture fibroblast: HCPF | 0.831 | 0.739 | 0.676 | 0.649 | 0.589 | 0.544 | 0.503 | 0.475 | 0.4585
10 µM, coculture fibroblast: HHSteC | 0.887 | 0.8467 | 0.7953 | 0.752 | 0.704 | 0.66602 | 0.6302 | 0.601 | 0.56
10 µM, coculture fibroblast: HMF | 0.877 | 0.803 | 0.737 | 0.703 | 0.656 | 0.623 | 0.577 | 0.555 | 0.535
10 µM, coculture fibroblast: HPFa | 0.9187 | 0.901 | 0.854 | 0.795 | 0.779 | 0.726 | 0.669 | 0.63 | 0.569
10 µM, coculture fibroblast: HUF | 0.857 | 0.738 | 0.755 | 0.638 | 0.572 | 0.554 | 0.5 | 0.5025 | 0.488
10 µM, coculture fibroblast: Hs5 | 0.867 | 0.798 | 0.7511 | 0.7089 | 0.666 | 0.609 | 0.5793 | 0.556 | 0.532
10 µM, coculture fibroblast: Hs27A | 0.897 | 0.846 | 0.7966 | 0.7673 | 0.71449 | 0.6493 | 0.639 | 0.6155 | 0.564
10 µM, coculture fibroblast: Hs343T | 0.866 | 0.76 | 0.687 | 0.6362 | 0.577 | 0.523 | 0.456 | 0.421 | 0.387
10 µM, coculture fibroblast: WS1 | 0.748 | 0.685 | 0.603 | 0.56 | 0.499 | 0.457 | 0.405 | 0.378 | 0.354
100 µM, coculture fibroblast: C12385 | 0.842 | 0.911 | 0.76 | 0.814 | 0.764 | 0.726 | 0.678 | 0.658 | 0.632
100 µM, coculture fibroblast: H6013 | 0.918 | 0.85 | 0.815 | 0.798 | 0.758 | 0.736 | 0.71 | 0.69 | 0.657
100 µM, coculture fibroblast: H6019 | 0.744 | 0.653 | 0.586 | 0.541 | 0.47 | 0.438 | 0.389 | 0.364 | 0.322
100 µM, coculture fibroblast: H6076 | 0.902 | 0.815 | 0.741 | 0.719 | 0.667 | 0.627 | 0.587 | 0.573 | 0.554
100 µM, coculture fibroblast: H6231 | 0.915 | 0.833 | 0.76 | 0.723 | 0.674 | 0.641 | 0.589 | 0.562 | 0.534
100 µM, coculture fibroblast: HADF | 0.888 | 0.831 | 0.786 | 0.762 | 0.706 | 0.651 | 0.633 | 0.598 | 0.556
100 µM, coculture fibroblast: HCFa | 0.9009 | 0.826 | 0.7803 | 0.751 | 0.685 | 0.638 | 0.608 | 0.571 | 0.517
100 µM, coculture fibroblast: HCPF | 0.849 | 0.895 | 0.789 | 0.744 | 0.69 | 0.646 | 0.604 | 0.57 | 0.538
100 µM, coculture fibroblast: HHSteC | 0.924 | 0.867 | 0.8285 | 0.7851 | 0.7404 | 0.693 | 0.639 | 0.592 | 0.549
100 µM, coculture fibroblast: HMF | 0.881 | 0.79229 | 0.713 | 0.685 | 0.628 | 0.599 | 0.549 | 0.525 | 0.496
100 µM, coculture fibroblast: HPFa | 0.954 | 0.9058 | 0.842 | 0.787 | 0.737 | 0.686 | 0.618 | 0.578 | 0.517
100 µM, coculture fibroblast: HUF | 0.837 | 0.7508 | 0.685 | 0.594 | 0.518 | 0.485 | 0.436 | 0.4086 | 0.385
100 µM, coculture fibroblast: Hs5 | 0.888 | 0.81 | 0.738 | 0.685 | 0.635 | 0.577 | 0.542 | 0.518 | 0.5
100 µM, coculture fibroblast: Hs27A | 0.8888 | 0.83028 | 0.784 | 0.752 | 0.697 | 0.635 | 0.637 | 0.615 | 0.574
100 µM, coculture fibroblast: Hs343T | 0.843 | 0.743 | 0.675 | 0.627 | 0.574 | 0.522 | 0.468 | 0.44 | 0.412
100 µM, coculture fibroblast: WS1 | 0.7653 | 0.71 | 0.632 | 0.592 | 0.547 | 0.517 | 0.47 | 0.446 | 0.419
